Protein sequences can lack the tags named with them.
Experiments:
Assay in all cases: activity in cells
[1] = test system: T1, v2_PPRsp2 (Artificial Sequence); conditions: larger splicing change than v1, HEK293T; protein in cells; protein details: N-term NLS, C-term FLAG; only the site is given
T1 sequence: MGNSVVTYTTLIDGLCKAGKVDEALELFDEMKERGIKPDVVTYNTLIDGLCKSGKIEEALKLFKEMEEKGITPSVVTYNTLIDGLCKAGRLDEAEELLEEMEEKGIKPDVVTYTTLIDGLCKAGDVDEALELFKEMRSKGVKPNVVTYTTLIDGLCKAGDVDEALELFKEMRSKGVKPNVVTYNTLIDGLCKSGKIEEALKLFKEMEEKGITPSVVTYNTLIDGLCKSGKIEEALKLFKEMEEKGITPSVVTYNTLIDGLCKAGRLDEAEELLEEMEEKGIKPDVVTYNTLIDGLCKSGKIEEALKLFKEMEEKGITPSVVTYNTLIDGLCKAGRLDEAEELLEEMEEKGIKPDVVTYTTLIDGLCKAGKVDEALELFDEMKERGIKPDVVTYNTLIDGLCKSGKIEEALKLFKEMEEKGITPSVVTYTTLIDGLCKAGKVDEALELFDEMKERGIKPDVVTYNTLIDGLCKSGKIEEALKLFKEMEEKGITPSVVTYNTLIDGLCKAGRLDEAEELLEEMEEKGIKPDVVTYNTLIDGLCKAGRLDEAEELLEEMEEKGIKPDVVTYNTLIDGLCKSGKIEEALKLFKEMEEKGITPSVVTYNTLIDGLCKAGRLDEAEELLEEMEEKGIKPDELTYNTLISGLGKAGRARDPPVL

[2] = test system: T2, v1_PPRsp2 (Artificial Sequence); conditions: splicing ratio of RG6 changed, HEK293T; protein in cells; protein details: N-term NLS, C-term FLAG; only the site is given
T2 sequence: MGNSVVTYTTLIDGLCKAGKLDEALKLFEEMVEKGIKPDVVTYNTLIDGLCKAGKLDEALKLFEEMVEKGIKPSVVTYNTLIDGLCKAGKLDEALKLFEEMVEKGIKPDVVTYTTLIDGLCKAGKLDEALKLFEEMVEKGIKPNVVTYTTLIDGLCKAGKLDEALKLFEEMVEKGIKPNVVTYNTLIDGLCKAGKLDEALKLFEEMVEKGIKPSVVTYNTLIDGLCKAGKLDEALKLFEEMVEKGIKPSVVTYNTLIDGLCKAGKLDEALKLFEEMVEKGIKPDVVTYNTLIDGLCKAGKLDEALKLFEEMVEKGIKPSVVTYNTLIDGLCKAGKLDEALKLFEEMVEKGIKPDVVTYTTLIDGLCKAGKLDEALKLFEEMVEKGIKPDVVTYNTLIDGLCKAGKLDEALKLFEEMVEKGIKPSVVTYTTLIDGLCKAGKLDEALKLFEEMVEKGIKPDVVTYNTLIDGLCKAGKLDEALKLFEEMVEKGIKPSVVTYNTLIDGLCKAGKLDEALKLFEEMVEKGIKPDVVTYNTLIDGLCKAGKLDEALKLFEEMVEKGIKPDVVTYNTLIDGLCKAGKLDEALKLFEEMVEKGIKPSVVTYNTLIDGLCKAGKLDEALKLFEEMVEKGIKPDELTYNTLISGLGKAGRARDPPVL

[3] = test system: T3, v1_PPRsp5 (Artificial Sequence); conditions: splicing ratio of RG6 changed, HEK293T; protein in cells; protein details: N-term NLS, C-term FLAG; only the site is given
T3 sequence: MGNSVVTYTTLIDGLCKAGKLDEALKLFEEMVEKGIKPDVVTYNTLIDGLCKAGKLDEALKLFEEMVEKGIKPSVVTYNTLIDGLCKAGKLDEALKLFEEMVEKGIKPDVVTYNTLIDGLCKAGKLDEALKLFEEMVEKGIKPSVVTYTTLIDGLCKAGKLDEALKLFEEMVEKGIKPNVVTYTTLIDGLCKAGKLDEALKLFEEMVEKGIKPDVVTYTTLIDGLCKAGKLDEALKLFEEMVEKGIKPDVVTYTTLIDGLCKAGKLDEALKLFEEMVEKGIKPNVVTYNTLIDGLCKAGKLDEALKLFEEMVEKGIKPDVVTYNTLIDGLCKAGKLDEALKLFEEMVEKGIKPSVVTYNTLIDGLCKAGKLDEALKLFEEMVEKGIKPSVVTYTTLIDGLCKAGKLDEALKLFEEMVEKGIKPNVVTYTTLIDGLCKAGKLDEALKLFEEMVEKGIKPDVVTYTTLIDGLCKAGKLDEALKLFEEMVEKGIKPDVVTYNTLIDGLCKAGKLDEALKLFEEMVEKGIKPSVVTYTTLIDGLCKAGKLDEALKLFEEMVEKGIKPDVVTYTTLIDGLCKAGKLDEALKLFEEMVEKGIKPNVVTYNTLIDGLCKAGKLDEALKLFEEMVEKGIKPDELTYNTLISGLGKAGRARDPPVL

[4] = test system: T4, v2_PPRsp5 (Artificial Sequence); conditions: larger splicing change than v1, HEK293T; protein in cells; protein details: N-term NLS, C-term FLAG; only the site is given
T4 sequence: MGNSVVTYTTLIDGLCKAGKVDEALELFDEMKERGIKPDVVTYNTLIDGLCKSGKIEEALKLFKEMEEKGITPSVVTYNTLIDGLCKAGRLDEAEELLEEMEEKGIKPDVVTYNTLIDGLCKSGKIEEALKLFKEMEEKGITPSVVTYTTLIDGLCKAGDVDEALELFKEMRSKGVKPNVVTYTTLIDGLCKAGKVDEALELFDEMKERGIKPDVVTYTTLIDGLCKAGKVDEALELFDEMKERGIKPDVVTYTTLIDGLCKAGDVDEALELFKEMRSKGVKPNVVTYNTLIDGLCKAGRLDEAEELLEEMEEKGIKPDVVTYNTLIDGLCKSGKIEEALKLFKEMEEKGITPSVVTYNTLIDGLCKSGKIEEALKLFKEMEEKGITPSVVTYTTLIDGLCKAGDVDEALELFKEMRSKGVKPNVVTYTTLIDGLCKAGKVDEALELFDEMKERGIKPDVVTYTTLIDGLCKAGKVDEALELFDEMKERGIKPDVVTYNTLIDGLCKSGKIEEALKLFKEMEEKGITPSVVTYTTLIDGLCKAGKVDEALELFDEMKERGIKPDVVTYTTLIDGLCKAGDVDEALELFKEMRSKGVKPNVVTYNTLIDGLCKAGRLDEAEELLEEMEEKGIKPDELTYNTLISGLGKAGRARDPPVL

[5] = test system: T5, v1_PPRsp3 (Artificial Sequence); conditions: splicing ratio of RG6 changed, HEK293T; protein in cells; protein details: N-term NLS, C-term FLAG; only the site is given
T5 sequence: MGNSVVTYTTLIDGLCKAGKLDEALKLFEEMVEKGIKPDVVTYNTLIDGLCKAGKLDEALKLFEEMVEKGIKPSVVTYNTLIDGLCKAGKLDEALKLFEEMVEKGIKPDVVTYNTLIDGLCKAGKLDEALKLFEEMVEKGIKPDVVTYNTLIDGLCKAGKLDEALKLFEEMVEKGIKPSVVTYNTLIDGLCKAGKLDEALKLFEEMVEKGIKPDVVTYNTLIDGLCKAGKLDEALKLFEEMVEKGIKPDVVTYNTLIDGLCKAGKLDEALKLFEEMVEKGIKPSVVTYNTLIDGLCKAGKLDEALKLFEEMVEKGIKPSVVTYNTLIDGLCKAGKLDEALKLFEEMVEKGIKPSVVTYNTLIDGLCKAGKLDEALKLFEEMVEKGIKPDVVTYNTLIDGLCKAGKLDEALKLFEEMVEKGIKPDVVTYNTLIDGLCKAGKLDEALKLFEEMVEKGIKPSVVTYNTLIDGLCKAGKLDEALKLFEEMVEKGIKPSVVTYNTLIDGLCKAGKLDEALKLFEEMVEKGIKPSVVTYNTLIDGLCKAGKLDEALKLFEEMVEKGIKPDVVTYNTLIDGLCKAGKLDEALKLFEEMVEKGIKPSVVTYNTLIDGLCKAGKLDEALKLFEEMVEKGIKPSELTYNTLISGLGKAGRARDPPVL

[6] = test system: T6, v2_PPRsp3 (Artificial Sequence); conditions: larger splicing change than v1, HEK293T; protein in cells; protein details: N-term NLS, C-term FLAG; only the site is given
T6 sequence: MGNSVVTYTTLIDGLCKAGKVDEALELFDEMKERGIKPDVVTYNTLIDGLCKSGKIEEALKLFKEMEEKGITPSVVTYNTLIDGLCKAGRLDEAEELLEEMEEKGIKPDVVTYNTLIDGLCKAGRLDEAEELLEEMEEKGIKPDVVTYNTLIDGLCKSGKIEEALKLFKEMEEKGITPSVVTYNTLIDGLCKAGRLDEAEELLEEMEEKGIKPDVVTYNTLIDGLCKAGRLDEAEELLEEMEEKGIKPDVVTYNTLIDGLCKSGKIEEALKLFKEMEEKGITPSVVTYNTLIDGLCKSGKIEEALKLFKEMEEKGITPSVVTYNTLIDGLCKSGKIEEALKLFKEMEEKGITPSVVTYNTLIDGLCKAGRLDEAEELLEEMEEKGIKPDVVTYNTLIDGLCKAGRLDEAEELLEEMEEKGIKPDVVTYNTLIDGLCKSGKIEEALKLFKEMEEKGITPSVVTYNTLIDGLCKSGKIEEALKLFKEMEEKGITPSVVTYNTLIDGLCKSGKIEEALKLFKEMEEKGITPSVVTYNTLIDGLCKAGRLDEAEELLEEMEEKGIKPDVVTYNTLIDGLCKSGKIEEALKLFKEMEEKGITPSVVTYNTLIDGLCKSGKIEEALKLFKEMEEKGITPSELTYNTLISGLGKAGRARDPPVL

[7] = test system: T7, v1_PPRsp1 (Artificial Sequence); conditions: splicing ratio of RG6 changed from 0.48, HEK293T; values in figure; protein in cells; protein details: N-term NLS, C-term FLAG; only the site is given
T7 sequence: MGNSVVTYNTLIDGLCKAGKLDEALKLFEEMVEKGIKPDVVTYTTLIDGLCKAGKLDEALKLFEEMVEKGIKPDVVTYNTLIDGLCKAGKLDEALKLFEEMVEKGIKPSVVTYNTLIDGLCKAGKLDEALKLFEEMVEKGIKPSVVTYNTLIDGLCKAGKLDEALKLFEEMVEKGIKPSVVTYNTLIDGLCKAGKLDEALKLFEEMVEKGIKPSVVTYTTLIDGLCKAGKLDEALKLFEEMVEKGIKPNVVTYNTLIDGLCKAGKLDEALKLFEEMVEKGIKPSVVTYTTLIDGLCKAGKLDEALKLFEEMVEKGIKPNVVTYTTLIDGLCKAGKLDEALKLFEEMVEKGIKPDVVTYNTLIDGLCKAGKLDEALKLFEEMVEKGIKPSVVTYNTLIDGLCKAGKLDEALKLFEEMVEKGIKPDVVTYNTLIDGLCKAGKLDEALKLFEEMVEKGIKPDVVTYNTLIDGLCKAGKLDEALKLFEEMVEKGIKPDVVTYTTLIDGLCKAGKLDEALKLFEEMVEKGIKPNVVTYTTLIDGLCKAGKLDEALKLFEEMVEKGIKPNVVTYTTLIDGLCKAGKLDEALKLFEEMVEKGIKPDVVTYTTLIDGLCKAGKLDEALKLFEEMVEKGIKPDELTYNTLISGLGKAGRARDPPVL

[8] = test system: T8, v2_PPRsp1 (Artificial Sequence); conditions: larger splicing change than v1, HEK293T; protein in cells; protein details: N-term NLS, C-term FLAG; only the site is given
T8 sequence: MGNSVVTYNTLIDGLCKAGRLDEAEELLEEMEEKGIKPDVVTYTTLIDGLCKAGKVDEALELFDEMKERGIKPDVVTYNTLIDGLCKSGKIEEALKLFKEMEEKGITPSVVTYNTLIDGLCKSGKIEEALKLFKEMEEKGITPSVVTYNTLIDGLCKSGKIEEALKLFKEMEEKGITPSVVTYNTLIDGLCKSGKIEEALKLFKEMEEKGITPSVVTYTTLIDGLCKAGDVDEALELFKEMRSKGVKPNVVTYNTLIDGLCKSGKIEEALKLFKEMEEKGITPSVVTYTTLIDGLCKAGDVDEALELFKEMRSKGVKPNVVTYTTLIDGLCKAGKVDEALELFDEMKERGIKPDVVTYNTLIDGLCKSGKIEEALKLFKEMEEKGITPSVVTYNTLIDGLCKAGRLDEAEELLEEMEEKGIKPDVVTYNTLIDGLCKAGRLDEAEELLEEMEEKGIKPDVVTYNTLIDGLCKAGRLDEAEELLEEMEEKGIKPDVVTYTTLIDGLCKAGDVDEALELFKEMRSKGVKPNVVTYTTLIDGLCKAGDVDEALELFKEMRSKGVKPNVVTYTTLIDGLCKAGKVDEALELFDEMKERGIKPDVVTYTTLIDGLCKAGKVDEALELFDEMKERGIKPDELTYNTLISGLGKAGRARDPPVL

Sequence: GCUAACCUCUGCGCUUCU [T78 (RG6 reporter)]
- functional effect [1]: active
- functional effect [2]: active

Sequence: GCUCAGGAUCCAGGCGAU [T81 (RG6 reporter)]
- functional effect [3]: active
- functional effect [4]: active

Sequence: GCUUCUUCCCUUCCCUCC [T79 (RG6 reporter)]
- functional effect [5]: active
- functional effect [6]: active

Sequence: UGCCCCACAGCUUUAAGG [T77 (RG6 reporter)]
- functional effect [7]: active
- functional effect [8]: active

Reference: US20220289795, “EFFICIENT METHOD FOR PREPARING PPR PROTEIN AND USE OF THE SAME” (EditForce, Inc., published 2022)
